# Where two headings read alike, the source gives them in different places. Not every detail of the peptide structures is certain; ends, links or a residue may be inferred. Bridge positions count the residues as written; N and C are the ends. Square brackets hold non-standard residues; d marks the D form. Peptide text beside a SMILES is read from it. R8 = C=CCCCCCC[C@@](C)(N)C(=O)O; S5 = C=CCCC[C@](C)(N)C(=O)O; βAla = NCCC(=O)O
# Protein sequences, listed by entry. Tags and fused reporters are not part of them. Residues count along the entry.
# UniProt Q00987, 17-125 limits assumed: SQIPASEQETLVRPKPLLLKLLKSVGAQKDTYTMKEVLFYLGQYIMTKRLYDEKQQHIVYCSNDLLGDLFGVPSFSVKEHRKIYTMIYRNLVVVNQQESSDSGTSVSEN
# UniProt Q00987, whole entry: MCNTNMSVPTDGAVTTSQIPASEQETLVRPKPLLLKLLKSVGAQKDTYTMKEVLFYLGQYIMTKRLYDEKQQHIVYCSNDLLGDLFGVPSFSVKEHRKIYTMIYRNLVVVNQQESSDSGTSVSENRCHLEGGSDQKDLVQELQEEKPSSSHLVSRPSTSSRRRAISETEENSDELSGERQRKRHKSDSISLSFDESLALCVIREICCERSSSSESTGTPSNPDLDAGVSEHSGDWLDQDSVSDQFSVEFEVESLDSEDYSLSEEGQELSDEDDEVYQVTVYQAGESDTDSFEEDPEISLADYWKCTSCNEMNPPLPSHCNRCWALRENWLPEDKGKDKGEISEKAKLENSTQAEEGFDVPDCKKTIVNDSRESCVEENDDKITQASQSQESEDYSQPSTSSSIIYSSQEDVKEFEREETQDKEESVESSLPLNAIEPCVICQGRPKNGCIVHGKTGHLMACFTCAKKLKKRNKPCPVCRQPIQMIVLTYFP
# Assays:
# [1] = molecular target: T1, HDM217-125 (Homo sapiens, UniProt Q00987); assay: Fluorescence polarization binding assay, FITC-peptides and HDM217-125; details: FITC-labeled derivatives
# T1 construct: plasmid encoding HDM217-125 with an N-terminal hexahistidine tag; hexahistidine tag (N, cleaved yes); thrombin cleavage site (N, cleaved yes); made in house; host or cells: Escherichia coli BL21 (DE3)
# Description: (§1) FIG. 10 Fluorescence polarization binding assay of stapled peptides. Fluoresceinated peptides (5 nM) were incubated with recombinant HDM217-125 (25 pM-10 μM) at room temperature. Binding activity was measured by fluorescence polarization, and Kd values were obtained by […].
# as §1, with “A fluorescence” for “FIG. 10 Fluorescence”, “assay was used to assess binding” for “assay”, “peptides to HDM217-125.” for “stapled peptides.”, “KD” for “Kd”
# Purified HDM217-125 was prepared as follows. […]
# and a thrombin cleavage site were cultured in kanamycin- and chloramphenicol-containing Luria Broth and induced with 0.1 mM isopropyl β-D-thiogalactoside (IPTG). […] Purity of the protein was assessed by SDS-PAGE, FPLC and MALDI-TOF and determined to be >90%. […]
# Fluoresceinated compounds (LT=5-25 nM) were incubated with HDM217-125 in binding assay buffer (140 mM NaCl, 50 mM, Tris pH 8.0) at room temperature. Binding activity was measured by fluorescence polarization on a Perkin-Elmer LS50B luminescence spectrophotometer using a cuvette containing a stirbar or a Spectramax M5 Microplate Reader (Molecular Devices). Kd values were determined by nonlinear regression analysis of dose response curves using Prism software 4.0 Graphpad. […]
# [2] = molecular target: T2, Native HDM2 (Homo sapiens, UniProt Q00987); assay: Co-immunoprecipitation of FITC-SAH-p53 peptides and endogenous HDM2; type: cell-based; details: SJSA-1 cells
# T2 construct: Co-Immunoprecipitation of FITC-SAH-p53 Peptides and Endogenous HDM2; endogenous in cells; host or cells: SJSA-1 osteosarcoma cells
# [3] = tested on: p53, HDM2 and p21; assay: Western analyses for p53, HDM2 and p21 in SJSA-1 cells; type: cell-based
# [4] = tested on: SJSA-1 cells; type: cell-based; details: 24 hours
# [5] = tested on: SJSA-1 cells; type: cell-based; details: 24 hours, Ac-DEVD-AMC substrate
# [6] = tested on: HCT 116 cells; assay: Comparison of caspase-3 activation, HCT-116 p53+/+ cells (FIG. 3C); type: cell-based; details: 25 μM
# [7] = tested on: SJSA-1-derived tumor xenografts; assay: Immunohistochemistry on mouse tumor xenografts (α-p53 antibody); type: in vivo; details: 10 mg kg−1 every 12 hours for two days
# [8] = tested on: RKO; assay: Cell viability assay, RKO cells; type: cell-based; details: RKO cancer cells
# [9] = tested on: HCT 116 p53−/−; assay: Comparison of caspase-3 activation, HCT-116 p53−/− cells (FIG. 3C); type: cell-based; details: HCT 116 cell line variant lacking p53, 25 μM
compound,measurement,setting,value
CC(=O)NCCC(=O)N[C@@H](CC(C)C)C(=O)N[C@@H](CO)C(=O)N[C@@H](CCC(N)=O)C(=O)N[C@@H](CCC(=O)O)C(=O)N[C@H](C(=O)N[C@@H](Cc1ccccc1)C(=O)N[C@]1(C)CCCCCCC=CCCC[C@@](C)(C(=O)N[C@@H](CCC(=O)O)C(=O)N[C@@H](CC(N)=O)C(N)=O)NC(=O)[C@H](CC(C)C)NC(=O)[C@H](CC(C)C)NC(=O)[C@H](CCCCN)NC(=O)[C@H](Cc2c[nH]c3ccccc23)NC(=O)[C@H](CC(C)C)NC(=O)[C@H](CC(=O)O)NC1=O)[C@@H](C)O [SAH-p53-4],affinity for HDM2 compared with that of the wild type peptide,[1],almost three orders of magnitude greater
CC(=O)NCCC(=O)N[C@@H](CCC(N)=O)C(=O)N[C@@H](CO)C(=O)N[C@@H](CCC(N)=O)C(=O)N[C@@H](CCC(N)=O)C(=O)N[C@H](C(=O)N[C@@H](C)C(=O)N[C@]1(C)CCCCCCC=CCCC[C@@](C)(C(=O)N[C@@H](CCC(N)=O)C(=O)N[C@@H](CC(N)=O)C(N)=O)NC(=O)[C@H](CC(C)C)NC(=O)[C@H](CC(C)C)NC(=O)[C@H](CCCNC(=N)N)NC(=O)[C@H](Cc2c[nH]c3ccccc23)NC(=O)[C@H](CC(C)C)NC(=O)[C@H](CC(N)=O)NC1=O)[C@@H](C)O [SAH-p53-8F19A] (Ac-[βAla]QSQQTA[R8]NLWRLL[S5]QN-NH2; staple 8-15; N-terminus and C-terminus assumed),co-immunoprecipitation of native HDM2 (anti-FITC pull down),[2],not
same,HDM2 levels,[3]; 8-30 hours,unchanged
same,p21 levels,[3]; 8-30 hours,unchanged
same,effect on cell viability,[4],no effect on cell viability
same,caspase-3 activation (effect),[5],neither the wild-type nor the 8F19A peptides had any effect
CC(=O)NCCC(=O)N[C@@H](CCC(N)=O)C(=O)N[C@@H](CO)C(=O)N[C@@H](CCC(N)=O)C(=O)N[C@@H](CCC(N)=O)C(=O)N[C@H](C(=O)N[C@@H](Cc1ccccc1)C(=O)N[C@]1(C)CCCCCCC=CCCC[C@@](C)(C(=O)N[C@@H](CCC(N)=O)C(=O)N[C@@H](CC(N)=O)C(N)=O)NC(=O)[C@H](CC(C)C)NC(=O)[C@H](CC(C)C)NC(=O)[C@H](CCCNC(=N)N)NC(=O)[C@H](Cc2c[nH]c3ccccc23)NC(=O)[C@H](CC(C)C)NC(=O)[C@H](CC(N)=O)NC1=O)[C@@H](C)O [SAH-p53-8],inhibition of cell viability (FIG. 3C),[6],also observed
same,co-immunoprecipitation of native HDM2 (anti-FITC pull down),[2],in situ interaction
same,p53 staining in tumor xenograft sections,[7],p53 accumulation near capillaries
same,time at which p21 upregulation was detected,[3],12 h
same,time of peak p21 levels,[3],18 h
same,time of peak p53 protein levels post-treatment,[3],18 h
same,HDM2 levels,[3]; 8-30 hours,time-dependent upregulation
same,p21 levels,[3]; 8-30 hours,induced upregulation
same,p53 protein levels,[3]; 8-30 hours,increased p53 proteins levels
same,caspase-3 activation (effect),[5],apoptosis induction
same,caspase-3 activation (effect),[5]; listed as 8,dose-dependent caspase-3 activation
same,effect on cell viability,[8],adversely affected cell viability
same,inhibition of cell viability (FIG. 3C),[9],not
